# Data published in the supplement of paper PMC12819154, “High-throughput peptide-centric local stability assay extends protein–ligand identification to membrane proteins, tissues and bacteria” (Nature Structural & Molecular Biology, 2025).
# By UniProt entry, the sequences of proteins in these tests, tags left out. Where a name states a change or a piece, a line headed by the entry shows the natural chain unless it says otherwise.
# UniProt Q96IK5: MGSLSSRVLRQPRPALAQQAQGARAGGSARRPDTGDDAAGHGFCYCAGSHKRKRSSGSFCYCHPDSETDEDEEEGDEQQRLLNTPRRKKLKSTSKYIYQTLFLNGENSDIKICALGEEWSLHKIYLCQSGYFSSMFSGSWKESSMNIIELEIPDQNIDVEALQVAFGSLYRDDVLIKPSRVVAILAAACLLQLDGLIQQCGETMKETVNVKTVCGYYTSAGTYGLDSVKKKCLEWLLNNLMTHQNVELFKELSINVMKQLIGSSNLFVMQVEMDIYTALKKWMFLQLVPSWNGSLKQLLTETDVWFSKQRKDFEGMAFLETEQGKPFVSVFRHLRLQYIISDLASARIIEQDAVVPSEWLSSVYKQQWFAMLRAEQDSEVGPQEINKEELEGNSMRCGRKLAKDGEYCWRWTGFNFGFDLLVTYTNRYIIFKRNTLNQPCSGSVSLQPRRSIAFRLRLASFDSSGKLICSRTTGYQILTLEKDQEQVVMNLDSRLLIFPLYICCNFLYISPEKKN
# UniProt Q96RG2: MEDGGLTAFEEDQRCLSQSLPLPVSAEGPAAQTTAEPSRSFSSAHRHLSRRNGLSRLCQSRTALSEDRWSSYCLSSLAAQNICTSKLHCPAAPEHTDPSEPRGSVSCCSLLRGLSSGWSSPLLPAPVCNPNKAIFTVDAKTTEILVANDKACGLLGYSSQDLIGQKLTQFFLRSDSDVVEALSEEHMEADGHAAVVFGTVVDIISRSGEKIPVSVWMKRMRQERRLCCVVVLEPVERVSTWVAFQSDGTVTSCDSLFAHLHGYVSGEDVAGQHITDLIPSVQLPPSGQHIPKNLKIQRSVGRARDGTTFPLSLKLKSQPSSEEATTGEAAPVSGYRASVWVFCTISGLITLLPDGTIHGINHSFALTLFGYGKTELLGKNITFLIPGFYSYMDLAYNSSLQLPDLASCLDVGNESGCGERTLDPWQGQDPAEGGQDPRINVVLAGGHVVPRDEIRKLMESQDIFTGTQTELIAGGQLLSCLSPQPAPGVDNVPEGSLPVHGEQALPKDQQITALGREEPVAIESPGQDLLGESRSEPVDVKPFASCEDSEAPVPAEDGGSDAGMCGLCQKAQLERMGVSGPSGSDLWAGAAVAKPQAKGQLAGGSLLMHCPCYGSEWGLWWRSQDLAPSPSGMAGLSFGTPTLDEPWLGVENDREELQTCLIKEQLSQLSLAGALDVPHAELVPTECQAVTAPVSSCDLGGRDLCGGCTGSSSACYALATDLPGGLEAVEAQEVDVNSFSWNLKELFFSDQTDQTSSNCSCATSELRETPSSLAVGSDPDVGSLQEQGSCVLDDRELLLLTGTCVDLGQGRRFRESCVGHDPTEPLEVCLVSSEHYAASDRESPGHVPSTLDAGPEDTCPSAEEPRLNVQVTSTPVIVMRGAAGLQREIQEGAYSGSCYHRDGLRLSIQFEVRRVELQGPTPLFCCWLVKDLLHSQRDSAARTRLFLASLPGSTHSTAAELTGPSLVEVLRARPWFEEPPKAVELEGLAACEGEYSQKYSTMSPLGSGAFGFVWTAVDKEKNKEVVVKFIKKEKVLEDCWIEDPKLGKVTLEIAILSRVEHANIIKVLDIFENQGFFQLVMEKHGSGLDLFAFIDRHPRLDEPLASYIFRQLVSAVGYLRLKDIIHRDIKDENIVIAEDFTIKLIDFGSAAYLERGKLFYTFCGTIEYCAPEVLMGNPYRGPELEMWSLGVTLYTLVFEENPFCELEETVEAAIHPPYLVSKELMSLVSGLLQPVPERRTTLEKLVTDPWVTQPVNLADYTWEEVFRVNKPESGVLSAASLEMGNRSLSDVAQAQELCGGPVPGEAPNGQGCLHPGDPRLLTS
# UniProt Q96MD7: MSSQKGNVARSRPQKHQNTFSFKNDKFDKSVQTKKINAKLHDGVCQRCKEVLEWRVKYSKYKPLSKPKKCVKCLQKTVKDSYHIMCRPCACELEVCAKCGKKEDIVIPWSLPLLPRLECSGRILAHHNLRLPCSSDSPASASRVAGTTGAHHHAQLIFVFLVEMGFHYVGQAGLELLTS
# UniProt Q96HT8: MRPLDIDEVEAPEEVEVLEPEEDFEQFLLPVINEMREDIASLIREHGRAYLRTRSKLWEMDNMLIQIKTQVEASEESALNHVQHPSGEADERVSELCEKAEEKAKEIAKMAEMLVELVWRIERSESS
# UniProt Q96N21: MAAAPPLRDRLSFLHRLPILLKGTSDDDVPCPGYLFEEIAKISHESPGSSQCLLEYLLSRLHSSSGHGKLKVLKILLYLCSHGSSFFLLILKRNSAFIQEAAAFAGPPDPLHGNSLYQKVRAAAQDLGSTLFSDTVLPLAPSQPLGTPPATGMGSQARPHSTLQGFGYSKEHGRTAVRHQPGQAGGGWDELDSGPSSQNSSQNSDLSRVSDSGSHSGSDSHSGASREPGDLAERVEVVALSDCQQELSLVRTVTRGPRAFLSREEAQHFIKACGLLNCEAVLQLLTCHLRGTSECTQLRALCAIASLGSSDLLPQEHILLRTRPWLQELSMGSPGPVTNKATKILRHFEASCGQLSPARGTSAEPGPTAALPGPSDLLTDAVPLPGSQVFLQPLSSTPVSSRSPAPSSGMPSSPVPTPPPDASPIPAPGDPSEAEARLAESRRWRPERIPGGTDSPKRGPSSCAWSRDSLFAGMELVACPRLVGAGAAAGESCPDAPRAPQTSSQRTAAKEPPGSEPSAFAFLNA
# UniProt Q96MX6, whole entry: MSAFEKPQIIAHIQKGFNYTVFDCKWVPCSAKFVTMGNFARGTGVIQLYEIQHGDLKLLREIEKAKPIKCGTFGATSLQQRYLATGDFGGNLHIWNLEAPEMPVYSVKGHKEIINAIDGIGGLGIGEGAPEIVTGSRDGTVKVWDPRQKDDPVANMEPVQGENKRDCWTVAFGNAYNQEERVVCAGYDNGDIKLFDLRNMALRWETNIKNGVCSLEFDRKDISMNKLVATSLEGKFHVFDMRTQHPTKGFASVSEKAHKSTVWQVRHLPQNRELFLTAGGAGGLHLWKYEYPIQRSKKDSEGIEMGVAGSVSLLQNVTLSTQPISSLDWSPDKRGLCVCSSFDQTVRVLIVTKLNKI
# UniProt Q99417: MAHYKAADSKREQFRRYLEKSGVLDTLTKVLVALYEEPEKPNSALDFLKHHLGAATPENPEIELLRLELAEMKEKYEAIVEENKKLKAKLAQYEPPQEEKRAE
# UniProt Q96HQ2: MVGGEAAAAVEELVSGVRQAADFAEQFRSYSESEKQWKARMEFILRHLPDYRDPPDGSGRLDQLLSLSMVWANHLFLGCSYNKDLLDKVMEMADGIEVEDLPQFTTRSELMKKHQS
# UniProt Q96N11, whole entry: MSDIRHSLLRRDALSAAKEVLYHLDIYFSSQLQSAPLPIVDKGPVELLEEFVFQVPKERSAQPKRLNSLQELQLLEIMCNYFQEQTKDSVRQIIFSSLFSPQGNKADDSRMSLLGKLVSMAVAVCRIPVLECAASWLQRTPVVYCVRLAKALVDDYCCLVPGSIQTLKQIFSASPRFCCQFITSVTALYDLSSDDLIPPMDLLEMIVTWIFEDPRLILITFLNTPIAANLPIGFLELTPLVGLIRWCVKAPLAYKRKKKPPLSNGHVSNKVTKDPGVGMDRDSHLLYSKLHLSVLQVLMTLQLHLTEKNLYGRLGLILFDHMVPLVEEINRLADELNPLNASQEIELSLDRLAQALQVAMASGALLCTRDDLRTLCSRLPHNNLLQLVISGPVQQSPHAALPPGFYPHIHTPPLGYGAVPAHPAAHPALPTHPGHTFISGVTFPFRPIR
# UniProt Q96SQ5: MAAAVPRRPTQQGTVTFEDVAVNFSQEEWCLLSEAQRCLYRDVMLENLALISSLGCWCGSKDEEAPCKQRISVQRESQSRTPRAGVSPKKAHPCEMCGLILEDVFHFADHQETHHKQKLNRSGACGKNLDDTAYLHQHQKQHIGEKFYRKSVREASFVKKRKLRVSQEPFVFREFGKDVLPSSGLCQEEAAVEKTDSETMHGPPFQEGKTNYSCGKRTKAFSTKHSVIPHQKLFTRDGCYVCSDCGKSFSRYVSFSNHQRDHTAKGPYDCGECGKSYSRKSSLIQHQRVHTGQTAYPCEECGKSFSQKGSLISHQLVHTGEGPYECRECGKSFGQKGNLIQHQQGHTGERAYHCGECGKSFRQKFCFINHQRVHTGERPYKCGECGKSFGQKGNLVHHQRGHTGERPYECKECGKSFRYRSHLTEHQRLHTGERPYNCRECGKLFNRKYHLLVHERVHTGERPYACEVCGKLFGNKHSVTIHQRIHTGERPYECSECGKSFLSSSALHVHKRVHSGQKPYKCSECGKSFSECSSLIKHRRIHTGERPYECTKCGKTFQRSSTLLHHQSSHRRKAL
# UniProt Q96RY5: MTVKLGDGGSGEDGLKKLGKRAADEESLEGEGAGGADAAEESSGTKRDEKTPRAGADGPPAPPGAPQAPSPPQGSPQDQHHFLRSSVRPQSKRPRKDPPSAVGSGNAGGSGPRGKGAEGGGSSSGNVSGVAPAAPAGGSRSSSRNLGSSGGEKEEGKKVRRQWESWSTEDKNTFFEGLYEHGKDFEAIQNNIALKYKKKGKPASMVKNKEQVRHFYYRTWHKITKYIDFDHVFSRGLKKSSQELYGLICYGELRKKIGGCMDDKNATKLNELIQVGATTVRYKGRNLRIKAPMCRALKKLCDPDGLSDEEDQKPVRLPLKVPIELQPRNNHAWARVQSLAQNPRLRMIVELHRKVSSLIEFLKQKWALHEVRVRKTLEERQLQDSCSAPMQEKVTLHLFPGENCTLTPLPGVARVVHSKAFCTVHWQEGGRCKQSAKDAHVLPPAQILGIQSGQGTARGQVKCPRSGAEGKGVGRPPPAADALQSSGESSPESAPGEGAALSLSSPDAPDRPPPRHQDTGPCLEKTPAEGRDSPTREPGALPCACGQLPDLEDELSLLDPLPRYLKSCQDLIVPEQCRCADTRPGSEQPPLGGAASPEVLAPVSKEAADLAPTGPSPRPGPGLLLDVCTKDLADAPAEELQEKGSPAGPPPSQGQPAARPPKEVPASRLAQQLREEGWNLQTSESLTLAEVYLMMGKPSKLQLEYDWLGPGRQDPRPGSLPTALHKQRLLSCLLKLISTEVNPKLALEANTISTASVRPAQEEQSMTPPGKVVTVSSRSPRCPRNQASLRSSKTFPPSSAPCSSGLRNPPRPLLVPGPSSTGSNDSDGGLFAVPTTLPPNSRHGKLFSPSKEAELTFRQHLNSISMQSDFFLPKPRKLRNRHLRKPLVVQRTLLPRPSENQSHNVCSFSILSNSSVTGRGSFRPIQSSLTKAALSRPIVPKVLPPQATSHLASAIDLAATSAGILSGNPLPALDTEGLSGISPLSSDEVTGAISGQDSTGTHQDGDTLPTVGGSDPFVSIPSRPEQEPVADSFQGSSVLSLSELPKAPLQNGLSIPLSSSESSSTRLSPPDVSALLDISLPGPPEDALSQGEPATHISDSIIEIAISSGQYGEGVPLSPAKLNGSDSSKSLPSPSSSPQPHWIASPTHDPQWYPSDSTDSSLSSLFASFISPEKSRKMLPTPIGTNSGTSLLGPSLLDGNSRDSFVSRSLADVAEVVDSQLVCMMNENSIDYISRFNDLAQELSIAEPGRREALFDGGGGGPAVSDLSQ
# UniProt Q96TA1: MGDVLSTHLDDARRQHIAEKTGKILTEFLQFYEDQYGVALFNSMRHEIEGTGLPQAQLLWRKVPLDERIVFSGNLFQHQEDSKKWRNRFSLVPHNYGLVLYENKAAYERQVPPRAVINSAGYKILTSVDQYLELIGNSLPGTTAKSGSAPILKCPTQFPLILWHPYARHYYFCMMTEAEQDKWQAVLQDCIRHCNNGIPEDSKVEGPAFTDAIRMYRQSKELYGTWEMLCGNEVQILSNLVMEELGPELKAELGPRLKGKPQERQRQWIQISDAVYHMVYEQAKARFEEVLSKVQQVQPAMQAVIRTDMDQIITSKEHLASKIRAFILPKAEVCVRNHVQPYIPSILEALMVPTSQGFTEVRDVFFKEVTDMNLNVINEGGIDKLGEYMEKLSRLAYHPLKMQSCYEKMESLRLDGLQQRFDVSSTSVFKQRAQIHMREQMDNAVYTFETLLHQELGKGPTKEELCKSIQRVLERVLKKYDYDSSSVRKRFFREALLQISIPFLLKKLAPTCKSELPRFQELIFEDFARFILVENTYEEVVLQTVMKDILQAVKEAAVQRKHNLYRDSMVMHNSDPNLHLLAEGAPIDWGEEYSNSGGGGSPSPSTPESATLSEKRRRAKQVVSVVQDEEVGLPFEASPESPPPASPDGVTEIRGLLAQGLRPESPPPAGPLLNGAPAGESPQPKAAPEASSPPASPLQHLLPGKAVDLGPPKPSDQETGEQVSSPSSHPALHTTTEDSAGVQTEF
# UniProt Q96L46: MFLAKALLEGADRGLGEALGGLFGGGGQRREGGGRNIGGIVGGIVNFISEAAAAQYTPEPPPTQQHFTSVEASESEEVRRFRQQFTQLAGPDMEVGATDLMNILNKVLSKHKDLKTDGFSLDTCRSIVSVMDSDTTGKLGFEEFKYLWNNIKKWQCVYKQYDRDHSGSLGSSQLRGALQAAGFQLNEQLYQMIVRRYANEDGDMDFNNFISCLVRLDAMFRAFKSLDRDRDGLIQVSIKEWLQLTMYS
# Some of the results follow. Small differences around the control level are noise.
# Compound: CN[C@@H]1C[C@H]2O[C@@](C)([C@@H]1OC)n1c3ccccc3c3c4c(c5c6ccccc6n2c5c31)C(=O)NC4 [staurosporine]
# Experiment: log2 fold change of tryptic peptide abundance, ligand vs vehicle (limited proteolysis) (log2 ratio); higher = more trypsin-susceptible (destabilized)
# Settings: ligand concentration: 20 uM; sample: K562 cleared lysate; digestion: 4 min, 22 C (HT-PELSA RT4min, Orbitrap Astral)
row,Target,log2 fold change
1,"UniProt Q96IK5 (peptide sequence: PALAQQAQGAR, peptide start residue: 14)",0.249
2,"C5orf34 (peptide sequence: FLTSDISEER, peptide start residue: 280) (UniProt Q96MH7)",0.196
3,"PASK (peptide sequence: TLDPWQGQDPAEGGQDPR, peptide start residue: 421) (UniProt Q96RG2)",0.273
4,"C9orf85 (peptide sequence: YKPLSKPK, peptide start residue: 61) (UniProt Q96MD7)",0.114
5,"IFT140 (peptide sequence: AVELLLAAR, peptide start residue: 1142) (UniProt Q96RY7)",-0.28
6,"DCAF5 (peptide sequence: IPADPEAGGIGR, peptide start residue: 309) (UniProt Q96JK2)",0.524
7,"UniProt Q96HT8 (peptide sequence: EDIASLIR, peptide start residue: 37)",0.23
8,"TMEM209 (peptide sequence: SQAPCANKDEADLSSK, peptide start residue: 297) (UniProt Q96SK2)",-0.342
9,"UniProt Q96N21 (peptide sequence: HFEASCGQLSPAR, peptide start residue: 347)",-0.592
10,"COG8 (peptide sequence: NSYYEEALELAAYVR, peptide start residue: 168) (UniProt Q96MW5)",0.63
11,"UniProt Q96NC0 (peptide sequence: DYDFEER, peptide start residue: 139)",-0.126
12,"UniProt Q96HM7 (peptide sequence: LLTPGQLR, peptide start residue: 42)",0.279
13,"WDR92 (peptide sequence: ELFLTAGGAGGLHLWKYEYPIQR, peptide start residue: 273) (UniProt Q96MX6)",-0.444
14,"UniProt Q96LW9 (peptide sequence: SSVLIEHQR, peptide start residue: 251)",0.255
15,"ZFP91 (peptide sequence: RSSPSARPPDVPGQQPQAAK, peptide start residue: 81) (UniProt Q96JP5)",0.475
16,"MYCBP (peptide sequence: SGVLDTLTK, peptide start residue: 21) (UniProt Q99417)",0.129
17,"UniProt Q96L94 (peptide sequence: ELLEFLR, peptide start residue: 100)",-0.15
18,"CDKN2AIPNL (peptide sequence: VGGEAAAAVEELVSGVR, peptide start residue: 2) (UniProt Q96HQ2)",-0.242
19,"KIF20B (peptide sequence: DYLQVCLR, peptide start residue: 57) (UniProt Q96Q89)",-0.713
20,"C7orf26 (peptide sequence: IPVLECAASWLQR, peptide start residue: 127) (UniProt Q96N11)",-0.295
21,"MCCC1 (peptide sequence: SEQEFQEQLESARR, peptide start residue: 220) (UniProt Q96RQ3)",0.196
22,"RSF1 (peptide sequence: LEKPLPENEEK, peptide start residue: 295) (UniProt Q96T23)",0.383
23,"UniProt Q96SQ5 (peptide sequence: LRVSQEPFVFR, peptide start residue: 163)",-0.754
24,"CRAMP1 (peptide sequence: PGPGLLLDVCTK, peptide start residue: 619) (UniProt Q96RY5)",-0.339
25,"UniProt Q96QE5 (peptide sequence: SINIVEHR, peptide start residue: 96)",-0.188
26,"UniProt Q96TA1 (peptide sequence: HEIEGTGLPQAQLLWR, peptide start residue: 46)",0.409
27,"ACAP3 (peptide sequence: EDLELSLVR, peptide start residue: 130) (UniProt Q96P50)",-0.363
28,"NEK1 (peptide sequence: IVQNILGNEHQHLYAK, peptide start residue: 1226) (UniProt Q96PY6)",0.91
29,"CAPNS2 (peptide sequence: LGFEEFK, peptide start residue: 159) (UniProt Q96L46)",0.456

# Quoted from the listing:
# In log2 fold change, UniProt Q96QE5 (peptide sequence: SINIVEHR, peptide start residue: 96) is entered as -0.188
# In log2 fold change, CRAMP1 (peptide sequence: PGPGLLLDVCTK, peptide start residue: 619) (UniProt Q96RY5) is entered as -0.339
